Construct, isoform or probe ends are uncertain for at least one entry.
Tested on: sigma70-saturated RNA polymerase holoenzyme (Escherichia coli)
Assay: EMSA
Details: with bssA promoter and recA fragment as competitors; 25 C, 30 min; Novex 6% DNA retardation gel, ethidium bromide; commercial protein; label: none (ethidium bromide stain); probe letters rebuilt from the primers and the genome

ACACCGGCCAGAACTATGGCCATGGCAAGGATAAGCCTGATCTTTTTCGGTCTCAGCATAATTTACCGGAAGTATAGCATCATAAAAAATGGCTGTAAAGCGCTTTGTGGCGGGCAATTAAAAATTTGGCATGGAGATTGAAGAAGGATAAAAACCGGGTGAAGGAACAGCGGAAAAGCAAGTAAAAAATGGTATCAGATCGGGCTCATTTGTAATAACGGTCCGTTATCTCTCCCCATACCCCCTGCTCCTTGAGAAGAAGATCACAAACCTCGCGAACTGCGCCCCAGCCACCTCGATTTCTAGTCACAAAATGGGCGTGAGGAATAACTTCCGCCACGGCGTCGGCAGGTGCAGCAGCAAAACCGGCCCGCCTCATAACAGGGATATCAATCACGTCATCACCGACAAAAGCTACCTGAGAATGGTCCAGACCGGTCGCCTCCAGTATCTTAAGATACGGTGTCAGCTTGTCCAGACACTTCTGATAAACGATGCCGATAGCGAGCTC (double strand) [rpoN operon promoter]
binding result: binds
